# Laboratory results: the supplement of paper PMC8728848
# The list shows a part of the results.
# Legend:
# Assay in all cases: glycan array binding signal (z-score within array); higher = stronger binding
# Conditions in all cases: glycan notation: IUPAC condensed, linker removed
# [1] = biological target: Neu5Ac(a2-6)GlcNAc(b1-4)GlcNAc
# Summary of the method: (§1)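 Negative Z-scores can be read as non-binding. The Z-score is calculated within each array and then averaged across arrays of one protein sequence at different concentrations or buffers and across linkers. Arrays, 3228 in all, were curated from the Consortium for Functional Glycomics database and kept only where the protein sequence was available.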
# [2] = biological target: Neu5Ac(a2-6)GlcNAc(b1-4)GlcNAc(b1-4)GlcNAc
# Summary of the method: as §1
# Neu5Ac(a2-8)Neu5Ac = biological target: Neu5Ac(a2-8)Neu5Ac
# Summary of the method: as §1
# [3] = biological target: Neu5Ac(a2-8)Neu5Ac(a2-3)Gal(b1-3)GalNAc(b1-4)[Neu5Ac(a2-3)]Gal(b1-4)Glc
# Summary of the method: as §1
# [4] = biological target: Neu5Ac(a2-8)Neu5Ac(a2-3)Gal(b1-3)GalNAc(b1-4)[Neu5Ac(a2-8)Neu5Ac(a2-3)]Gal(b1-4)Glc
# Summary of the method: as §1
# [5] = biological target: Neu5Ac(a2-8)Neu5Ac(a2-3)Gal(b1-4)Glc
# Summary of the method: as §1
# [6] = biological target: Neu5Ac(a2-8)Neu5Ac(a2-3)Gal(b1-4)GlcNAc
# Summary of the method: as §1
# [7] = biological target: Neu5Ac(a2-8)Neu5Ac(a2-3)[Gal(b1-3)GalNAc(b1-4)]Gal(b1-4)Glc
# Summary of the method: as §1
# [8] = biological target: Neu5Ac(a2-8)Neu5Ac(a2-3)[GalNAc(b1-4)]Gal(b1-4)Glc
# Summary of the method: as §1
# [9] = biological target: Neu5Ac(a2-8)Neu5Ac(a2-8)Neu5Ac
# Summary of the method: as §1
# [10] = biological target: Neu5Ac(a2-8)Neu5Ac(a2-8)Neu5Ac(a2-3)Gal(b1-4)Glc
# Summary of the method: as §1
# [11] = biological target: Neu5Ac(a2-8)Neu5Ac(a2-8)Neu5Ac(a2-3)[Gal(b1-3)GalNAc(b1-4)]Gal(b1-4)Glc
# Summary of the method: as §1
# [12] = biological target: Neu5Ac(a2-8)Neu5Ac(a2-8)Neu5Ac(a2-3)[GalNAc(b1-4)]Gal(b1-4)Glc
# Summary of the method: as §1
# [13] = biological target: Neu5Ac(a2-8)Neu5Ac(a2-8)Neu5Ac(a2-8)Neu5Ac(a2-3)[GalNAc(b1-4)]Gal(b1-4)Glc
# Summary of the method: as §1
# [14] = biological target: Neu5Ac(a2-8)Neu5Gc(a2-3)Gal(b1-4)GlcNAc
# Summary of the method: as §1
# [15] = biological target: Neu5Ac(b2-6)Gal(b1-4)GlcNAc
# Summary of the method: as §1
# Neu5Ac(b2-6)GalNAc = biological target: Neu5Ac(b2-6)GalNAc
# Summary of the method: as §1
# [16] = biological target: Neu5Ac9Ac(a2-3)Gal(b1-3)GlcNAc
# Summary of the method: as §1
# [17] = biological target: Neu5Ac9Ac(a2-3)Gal(b1-4)GlcNAc
# Summary of the method: as §1
# [18] = biological target: Neu5Ac9Ac(a2-6)Gal(b1-4)GlcNAc
# Summary of the method: as §1
# [19] = biological target: Neu5Gc(a2-3)Gal(b1-3)GlcNAc
# Summary of the method: as §1
# [20] = biological target: Neu5Gc(a2-3)Gal(b1-3)[Fuc(a1-4)]GlcNAc
# Summary of the method: as §1
# Neu5Gc(a2-3)Gal(b1-4)Glc = biological target: Neu5Gc(a2-3)Gal(b1-4)Glc
# Summary of the method: as §1
# [21] = biological target: Neu5Gc(a2-3)Gal(b1-4)GlcNAc
# Summary of the method: as §1
# [22] = biological target: Neu5Gc(a2-3)Gal(b1-4)GlcNAc(b1-3)Gal(b1-4)GlcNAc(b1-2)Man(a1-3)[Neu5Gc(a2-3)Gal(b1-4)GlcNAc(b1-3)Gal(b1-4)GlcNAc(b1-2)Man(a1-6)]Man(b1-4)GlcNAc(b1-4)GlcNAc
# Summary of the method: as §1
# [23] = biological target: Neu5Gc(a2-3)Gal(b1-4)[Fuc(a1-3)]GlcNAc
# Summary of the method: as §1
# [24] = biological target: Neu5Gc(a2-6)Gal(b1-4)GlcNAc
# Summary of the method: as §1
# Neu5Gc(a2-6)GalNAc = biological target: Neu5Gc(a2-6)GalNAc
# Summary of the method: as §1
# [25] = biological target: Neu5Gc(a2-8)Neu5Ac(a2-3)Gal(b1-4)GlcNAc
# Summary of the method: as §1
# [26] = biological target: Neu5Gc(a2-8)Neu5Gc(a2-3)Gal(b1-4)GlcNAc
# Summary of the method: as §1
# [27] = biological target: Neu5Gc(a2-8)Neu5Gc(a2-3)Gal(b1-4)GlcNAc(b1-3)Gal(b1-4)GlcNAc
# Summary of the method: as §1
# [28] = biological target: Neu5Gc(a2-8)Neu5Gc(a2-6)Gal(b1-4)GlcNAc
# Summary of the method: as §1
# [29] = biological target: Neu5Gc(b2-6)Gal(b1-4)GlcNAc
# Summary of the method: as §1
binder,measurement,setting,value
"SUN4 (Saccharomyces cerevisiae), P53616 (protein) MGSSHHHHHHSSGLVPRGSHNGSIYGDLADFSGPYEKFEDGTIPCGQFPSGQGVIPISWLDEGGWSGVENTDTSTGGSCKEGSYCSYACQPGMSKTQWPSDQPSDGRSIGGLLCKDGYLYRSNTDTDYLCEWGVDAAYVVSELSNDVAICRTDYPGTENMVIPTYVQAGDSLPLTVVDQDTYYTWQGLKTSAQYYVNNAGISVEDACVWGSSSSGVGNWAPLNFGAGSSDGVAYLSLIPNPNNGNALNFNVKIVAADDSSTVNGECIYENGSFSGGSDGCTVSVTAGKAKFVLYN",glycan array binding signal (z-score),[1],0.049
same,glycan array binding signal (z-score),[2],-0.174
same,glycan array binding signal (z-score),Neu5Ac(a2-8)Neu5Ac,0.541
same,glycan array binding signal (z-score),[3],-0.03
same,glycan array binding signal (z-score),[4],0.899
same,glycan array binding signal (z-score),[5],0.051
same,glycan array binding signal (z-score),[6],0.123
same,glycan array binding signal (z-score),[7],-0.086
same,glycan array binding signal (z-score),[8],-0.355
same,glycan array binding signal (z-score),[9],0.015
same,glycan array binding signal (z-score),[10],0.633
same,glycan array binding signal (z-score),[11],-0.179
same,glycan array binding signal (z-score),[12],0.133
same,glycan array binding signal (z-score),[13],-0.426
same,glycan array binding signal (z-score),[14],0.215
same,glycan array binding signal (z-score),[15],-0.182
same,glycan array binding signal (z-score),Neu5Ac(b2-6)GalNAc,-1.22
same,glycan array binding signal (z-score),[16],-0.945
same,glycan array binding signal (z-score),[17],-0.609
same,glycan array binding signal (z-score),[18],0.082
same,glycan array binding signal (z-score),[19],-0.627
same,glycan array binding signal (z-score),[20],0.391
same,glycan array binding signal (z-score),Neu5Gc(a2-3)Gal(b1-4)Glc,-0.809
same,glycan array binding signal (z-score),[21],1.01
same,glycan array binding signal (z-score),[22],-0.115
same,glycan array binding signal (z-score),[23],0.118
same,glycan array binding signal (z-score),[24],-0.424
same,glycan array binding signal (z-score),Neu5Gc(a2-6)GalNAc,-0.314
same,glycan array binding signal (z-score),[25],-0.633
same,glycan array binding signal (z-score),[26],-0.415
same,glycan array binding signal (z-score),[27],-0.172
same,glycan array binding signal (z-score),[28],-0.222
same,glycan array binding signal (z-score),[29],-0.476

# 5 entries from above, bar-delimited:
binder | measurement | setting | value
SUN4 (Saccharomyces cerevisiae), P53616 (protein) MGSSHHHHHHSSGLVPRGSHNGSIYGDLADFSGPYEKFEDGTIPCGQFPSGQGVIPISWLDEGGWSGVENTDTSTGGSCKEGSYCSYACQPGMSKTQWPSDQPSDGRSIGGLLCKDGYLYRSNTDTDYLCEWGVDAAYVVSELSNDVAICRTDYPGTENMVIPTYVQAGDSLPLTVVDQDTYYTWQGLKTSAQYYVNNAGISVEDACVWGSSSSGVGNWAPLNFGAGSSDGVAYLSLIPNPNNGNALNFNVKIVAADDSSTVNGECIYENGSFSGGSDGCTVSVTAGKAKFVLYN | glycan array binding signal (z-score) | [1] | 0.049
same | glycan array binding signal (z-score) | [6] | 0.123
same | glycan array binding signal (z-score) | [14] | 0.215
same | glycan array binding signal (z-score) | [18] | 0.082
same | glycan array binding signal (z-score) | [22] | -0.115
